Data taken from US9517222B2, “Method for the treatment of senile dementia of the Alzheimer's type” (Phenomenome Discoveries Inc., priority 2007, dated 2016).

Key:
[1] = Serum ethanolamine phospholipid levels in human cohorts (dementia severity, post-mortem pathology, age) by flow-injection MS/MS
[2] = Serum ethanolamine phospholipid ratios to PtdEt 16:0/18:0 (M01) in human cohorts
[3] = serum, females, post mortem SDAT
[4] = serum, females, post mortem control

CCCCC/C=C\C/C=C\C/C=C\C/C=C\CCCC(=O)OC(CO/C=C\CCCCCCCCCCCCCC)COP(=O)(O)OCCN (centres unmarked) [Metabolite M17, Plasmenyl 16:0/20:4]
Ratio of serum levels ([1]; AD, All to CN, Male): 0.644
Ratio of serum levels ([1]; ADAS 5-19 to CN, Male): 0.718
Ratio of serum levels ([1]; ADAS 20-39 to 5-19, Male): 0.865
Ratio of serum levels ([1]; ADAS 20-39 to CN, Male): 0.621
Ratio of serum levels ([1]; ADAS 40-70 to 5-19, Male): 0.716
Ratio of serum levels ([1]; ADAS 40-70 to 20-39, Male): 0.828
Ratio of serum levels ([1]; ADAS 40-70 to CN, Male): 0.515
Serum level, Mean ([1]; Cognitive Normal, Female): 0.408
Average serum level, Mean ([1]; Cognitive Normal, Male): 0.470
Serum level, Mean ([1]; Post Mortem Ctl, Male): 0.097
Serum level, Mean ([1]; Post Mortem SDAT Male): 0.047
Ratio of serum levels ([1]; Post mortem SDAT vs Control, Male): 0.489
Serum level, Mean ([1]; SDAT, ADAS 5-19, Female): 0.317
Average serum level, Mean ([1]; SDAT, ADAS 5-19, Male): 0.338
Serum level, Mean ([1]; SDAT, ADAS 20-39, Female): 0.304
Average serum level, Mean ([1]; SDAT, ADAS 20-39, Male): 0.292
Serum level, Mean ([1]; SDAT, ADAS 40-70, Female): 0.247
Average serum level, Mean ([1]; SDAT, ADAS 40-70, Male): 0.242
Serum level, Mean ([1]; SDAT_all, Female): 0.288
Average serum level, Mean ([1]; SDAT_all, Male): 0.302
Ratio, ADAS 5-19 to CN, Female ([1]; serum level ratio, females, ADAS 5-19 vs CN): 0.776
Ratio, ADAS 20-39 to 5-19, Female ([1]; serum level ratio, females, ADAS 20-39 vs ADAS 5-19): 0.960
Ratio, ADAS 20-39 to CN, Female ([1]; serum level ratio, females, ADAS 20-39 vs CN): 0.745
Ratio, ADAS 40-70 to 5-19, Female ([1]; serum level ratio, females, ADAS 40-70 vs ADAS 5-19): 0.779
Ratio, ADAS 40-70 to 20-39, Female ([1]; serum level ratio, females, ADAS 40-70 vs ADAS 20-39): 0.812
Ratio, ADAS 40-70 to CN, Female ([1]; serum level ratio, females, ADAS 40-70 vs CN): 0.605
Ratio, 50-59 vs. 40-49, Female ([1]; serum level ratio, females, age 50-59 vs 40-49): 0.856
Ratio, 60-69 vs. 40-49, Female ([1]; serum level ratio, females, age 60-69 vs 40-49): 0.773
Ratio, 70+ vs. 40-49, Female ([1]; serum level ratio, females, age 70+ vs 40-49): 0.786
Ratio, AD, All to CN, Female ([1]; serum level ratio, females, all AD vs cognitively normal): 0.705
Ratio, Autopsy AD vs. Control, Female ([1]; serum level ratio, females, autopsy AD vs control): 0.592
Ratio, 50-59 vs. 40-49, Male ([1]; serum level ratio, males, age 50-59 vs 40-49): 1.291
Ratio, 60-69 vs. 40-49, Male ([1]; serum level ratio, males, age 60-69 vs 40-49): 1.241
Ratio, 70+ vs. 40-49, Male ([1]; serum level ratio, males, age 70+ vs 40-49): 1.235
Mean serum level, Age Ctl, 30-39, Female ([1]; serum, females, age 30-39): 0.419
Mean serum level, Age Ctl, 40-49, Female ([1]; serum, females, age 40-49): 0.458
Mean serum level, Age Ctl, 50-59, Female ([1]; serum, females, age 50-59): 0.392
Mean serum level, Age Ctl, 60-69, Female ([1]; serum, females, age 60-69): 0.354
Mean serum level, Age Ctl, 70+, Female ([1]; serum, females, age 70+): 0.360
Mean serum level, Post Mortem SDAT, Female [1, 3]: 0.067
Mean serum level, Post Mortem Ctl, Female [1, 4]: 0.113
Mean serum level, Age Ctl, 30-39, Male ([1]; serum, males, age 30-39): 0.489
Mean serum level, Age Ctl, 40-49, Male ([1]; serum, males, age 40-49): 0.332
Mean serum level, Age Ctl, 50-59, Male ([1]; serum, males, age 50-59): 0.429
Mean serum level, Age Ctl, 60-69, Male ([1]; serum, males, age 60-69): 0.412
Mean serum level, Age Ctl, 70+, Male ([1]; serum, males, age 70+): 0.410
Ratio of ethanolamine phospholipid ratios to M01 between cohorts ([2]; AD, All to CN, Male): 0.611
Ratio of ethanolamine phospholipid ratios to M01 between cohorts ([2]; ADAS 5-19 to CN, Male): 0.679
Ratio of ethanolamine phospholipid ratios to M01 between cohorts ([2]; ADAS 20-39 to CN, Male): 0.595
Ratio of ethanolamine phospholipid ratios to M01 between cohorts ([2]; ADAS 40-70 to CN, Male): 0.520
Average serum ethanolamine phospholipid ratio to M01, Mean ([2]; Cognitive Normal, Male, serum): 4.203
Average serum ethanolamine phospholipid ratio to M01, Mean ([2]; SDAT, ADAS 5-19, Male, serum): 2.853
Average serum ethanolamine phospholipid ratio to M01, Mean ([2]; SDAT, ADAS 20-39, Male, serum): 2.501
Average serum ethanolamine phospholipid ratio to M01, Mean ([2]; SDAT, ADAS 40-70, Male, serum): 2.187
Average serum ethanolamine phospholipid ratio to M01, Mean ([2]; SDAT_all, Male, serum): 2.569
Ethanolamine Phospholipid Ratio to M01, Mean, Age Ctl, 30-39, Female ([2]; human serum, females aged 30-39): 4.055
Ethanolamine Phospholipid Ratio to M01, Mean, Age Ctl, 40-49, Female ([2]; human serum, females aged 40-49): 4.149
Ethanolamine Phospholipid Ratio to M01, Mean, Age Ctl, 50-59, Female ([2]; human serum, females aged 50-59): 3.987
Ratio of Ethanolamine Phospholipid Ratio to M01, 50-59 vs. 40-49, Female ([2]; human serum, females aged 50-59 vs. females aged 40-49): 0.961
Ethanolamine Phospholipid Ratio to M01, Mean, Age Ctl, 60-69, Female ([2]; human serum, females aged 60-69): 2.963
Ratio of Ethanolamine Phospholipid Ratio to M01, 60-69 vs. 40-49, Female ([2]; human serum, females aged 60-69 vs. females aged 40-49): 0.714
Ethanolamine Phospholipid Ratio to M01, Mean, Age Ctl, 70+_Female ([2]; human serum, females aged 70+): 3.010
Ratio of Ethanolamine Phospholipid Ratio to M01, 70+ vs. 40-49, Female ([2]; human serum, females aged 70+ vs. females aged 40-49): 0.726
Ratio of Ethanolamine Phospholipid Ratio to M01, 50-59 vs. 40-49, Male ([2]; human serum, males aged 50-59 vs. males aged 40-49): 1.258
Ratio of Ethanolamine Phospholipid Ratio to M01, 60-69 vs. 40-49, Male ([2]; human serum, males aged 60-69 vs. males aged 40-49): 1.001
Ratio of Ethanolamine Phospholipid Ratio to M01, 70+ vs. 40-49, Male ([2]; human serum, males aged 70+ vs. males aged 40-49): 1.004
Ratio of ethanolamine phospholipid ratio to M01, ADAS 5-19 to CN, Female ([2]; serum, females, ADAS 5-19 vs cognitive normal): 0.851
Ratio of ethanolamine phospholipid ratio to M01, ADAS 20-39 to 5-19, Female ([2]; serum, females, ADAS 20-39 vs ADAS 5-19): 0.924
Ratio of ethanolamine phospholipid ratio to M01, ADAS 20-39 to CN, Female ([2]; serum, females, ADAS 20-39 vs cognitive normal): 0.786
Ratio of ethanolamine phospholipid ratio to M01, ADAS 40-70 to 5-19, Female ([2]; serum, females, ADAS 40-70 vs ADAS 5-19): 0.711
Ratio of ethanolamine phospholipid ratio to M01, ADAS 40-70 to 20-39, Female ([2]; serum, females, ADAS 40-70 vs ADAS 20-39): 0.769
Ratio of ethanolamine phospholipid ratio to M01, ADAS 40-70 to CN, Female ([2]; serum, females, ADAS 40-70 vs cognitive normal): 0.605
Ethanolamine phospholipid ratio to M01, Mean, SDAT, ADAS 5-19, Female ([2]; serum, females, SDAT ADAS 5-19): 2.976
Ethanolamine phospholipid ratio to M01, Mean, SDAT, ADAS 20-39, Female ([2]; serum, females, SDAT ADAS 20-39): 2.750
Ethanolamine phospholipid ratio to M01, Mean, SDAT, ADAS 40-70, Female ([2]; serum, females, SDAT ADAS 40-70): 2.115
Ratio of ethanolamine phospholipid ratio to M01, AD, All to CN, Female ([2]; serum, females, all AD vs cognitive normal): 0.742
Ethanolamine phospholipid ratio to M01, Mean, SDAT_all Female ([2]; serum, females, all SDAT): 2.593
Ratio of ethanolamine phospholipid ratio to M01, Autopsy AD vs. Control, Female ([2]; serum, females, autopsy AD vs post mortem control): 0.848
Ethanolamine phospholipid ratio to M01, Mean, Cognitive Normal, Female ([2]; serum, females, cognitive normal): 3.497
Ethanolamine phospholipid ratio to M01, Mean, Post Mortem SDAT Female [2, 3]: 0.591
Ethanolamine phospholipid ratio to M01, Mean, Post Mortem Ctl, Female [2, 4]: 0.697
Ratio of ethanolamine phospholipid ratio to M01, ADAS 20-39 to 5-19, Male ([2]; serum, males, SDAT ADAS 20-39 vs ADAS 5-19): 0.877
Ratio of ethanolamine phospholipid ratio to M01, ADAS 40-70 to 5-19, Male ([2]; serum, males, SDAT ADAS 40-70 vs ADAS 5-19): 0.767
Ratio of ethanolamine phospholipid ratio to M01, ADAS 40-70 to 20-39, Male ([2]; serum, males, SDAT ADAS 40-70 vs ADAS 20-39): 0.875
Ethanolamine phospholipid ratio to M01, Mean, Age Ctl, 30-39, Male ([2]; serum, males, age control 30-39): 4.127
Ethanolamine phospholipid ratio to M01, Mean, Age Ctl, 40-49, Male ([2]; serum, males, age control 40-49): 3.164
Ethanolamine phospholipid ratio to M01, Mean, Age Ctl, 50-59, Male ([2]; serum, males, age control 50-59): 3.980
Ethanolamine phospholipid ratio to M01, Mean, Age Ctl, 60-69, Male ([2]; serum, males, age control 60-69): 3.167
Ethanolamine phospholipid ratio to M01, Mean, Age Ctl, 70+_Male ([2]; serum, males, age control 70+): 3.178
Ethanolamine phospholipid ratio to M01, Mean, Post Mortem SDAT Male ([2]; serum, males, post mortem SDAT): 0.561
Ratio of ethanolamine phospholipid ratio to M01, SDAT vs Control (post mortem, males) ([2]; serum, males, post mortem SDAT vs post mortem control): 0.660
Ethanolamine phospholipid ratio to M01, Mean, Post Mortem Ctl, Male ([2]; serum, males, post mortem control): 0.849

Some values come without a unit; they compare only within their column.
